Laboratory results reported in US20190225649A1.
Results are given in words; binding and its absence hold for the method and conditions named. In cells and extracts the contact can be indirect. Some entries that bind do so weakly or less than the wild type.

Sequences of proteins named here, by UniProt entry; tags and fusion partners are left off. Residues count along the entry.
UniProt P05555, residues 17-1153: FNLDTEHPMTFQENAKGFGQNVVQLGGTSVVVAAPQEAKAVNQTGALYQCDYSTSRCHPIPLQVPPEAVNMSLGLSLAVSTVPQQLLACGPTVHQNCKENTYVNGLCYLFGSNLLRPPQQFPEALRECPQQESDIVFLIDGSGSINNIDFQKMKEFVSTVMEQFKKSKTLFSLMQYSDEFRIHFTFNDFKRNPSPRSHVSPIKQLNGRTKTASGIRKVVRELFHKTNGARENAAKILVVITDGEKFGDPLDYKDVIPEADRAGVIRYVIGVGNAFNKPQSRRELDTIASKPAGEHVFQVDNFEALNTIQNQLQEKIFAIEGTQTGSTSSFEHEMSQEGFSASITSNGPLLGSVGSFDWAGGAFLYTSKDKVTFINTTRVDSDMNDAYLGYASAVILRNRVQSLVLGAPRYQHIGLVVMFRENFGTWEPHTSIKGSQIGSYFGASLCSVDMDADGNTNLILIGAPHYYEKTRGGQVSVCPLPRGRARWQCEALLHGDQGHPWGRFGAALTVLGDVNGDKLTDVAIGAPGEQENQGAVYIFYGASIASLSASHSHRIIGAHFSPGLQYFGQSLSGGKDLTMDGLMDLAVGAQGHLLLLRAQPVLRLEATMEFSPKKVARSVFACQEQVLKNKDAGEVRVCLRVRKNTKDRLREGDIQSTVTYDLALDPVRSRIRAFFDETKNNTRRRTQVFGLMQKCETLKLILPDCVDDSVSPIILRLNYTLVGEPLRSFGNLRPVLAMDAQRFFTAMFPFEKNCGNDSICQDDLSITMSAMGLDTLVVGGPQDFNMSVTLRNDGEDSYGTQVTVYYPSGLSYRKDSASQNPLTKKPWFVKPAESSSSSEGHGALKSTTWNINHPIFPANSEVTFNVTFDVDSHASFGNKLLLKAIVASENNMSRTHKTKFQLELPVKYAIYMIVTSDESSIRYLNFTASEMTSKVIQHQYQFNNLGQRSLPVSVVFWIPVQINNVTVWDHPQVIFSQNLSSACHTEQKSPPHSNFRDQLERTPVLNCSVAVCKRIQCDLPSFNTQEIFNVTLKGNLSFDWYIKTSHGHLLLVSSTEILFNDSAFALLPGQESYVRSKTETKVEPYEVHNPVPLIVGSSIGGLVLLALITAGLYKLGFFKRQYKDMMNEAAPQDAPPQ

Legend:
[1] = molecular target: T1, CD47 on mouse microglial cells / mouse peritoneal recruited macrophages (mouse) (UniProt Q61735); assay: Duolink proximity ligation assay, confocal micrographs
T1 sequence (looked up): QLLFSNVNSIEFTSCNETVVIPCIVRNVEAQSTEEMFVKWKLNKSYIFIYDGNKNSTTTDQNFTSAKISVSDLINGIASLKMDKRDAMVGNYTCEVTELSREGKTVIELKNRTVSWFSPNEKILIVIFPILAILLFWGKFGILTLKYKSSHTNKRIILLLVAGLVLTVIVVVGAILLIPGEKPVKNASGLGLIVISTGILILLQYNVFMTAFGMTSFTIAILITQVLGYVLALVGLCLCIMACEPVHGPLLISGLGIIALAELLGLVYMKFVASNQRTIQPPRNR

[2] = molecular target: T1, CD47 on mouse microglial cells / mouse peritoneal recruited macrophages (mouse); assay: Duolink proximity ligation assay on fixed mouse peritoneal macrophages
[3] = molecular target: T1, CD47 on mouse microglial cells / mouse peritoneal recruited macrophages (mouse); assay: Duolink proximity ligation assay on fixed mouse peritoneal macrophages; complexes not observed in CD47-/- mice

Measured: binding

CD11b on mouse peritoneal recruited macrophages (from UniProt P05555 17-1153) (receptor)
binds: all assays above
